{"source": "patent US10864251B2", "about": "“Peptides of syndecan-1 for inhibiting angiogenesis” (Wisconsin Alumni Research Foundation, priority 2006, dated 2020)", "key": {"segments of mouse aorta": {"tested_on": "segments of mouse aorta", "type": "cell-based", "protocol": "FIG. 12—SSTN blocks aortic ring angiogenesis. Aortic segments were explanted to collagen gels for 7 days in the presence of 50 ng/ml vascular endothelial cell growth factor (VEGF), or 30 ng/ml FGF-2 in the presence or absence of mS1ED or SSTN. Total outgrowth in quantified as the total length of all microvessels.\nTo test the activity of SSTN as an anti-angiogenic agent, the inventors turned to the in vitro aortic ring outgrowth assay and the in vivo corneal angiogenesis model. The aortic outgrowth assay allows quantification of microvessel outgrowth from segments of mouse aorta explanted to type I collagen gels. As was found when examining the mouse aortic endothelial cell line in culture, both syndecan-1 and the αvβ3 and αvβ5 integrins appear present even on the resting mouse aorta (FIG. 11A). In addition, microvessels growing out from the aortic explant over a 7 days period in response to FGF stain positively for syndecan-1, with appears co-expressed with the αvβ3 and αvβ5 integrins (FIG. 11B). To extend this finding of syndecan-1 expression in activated endothelium, the inventors also examined two models of mouse breast tumor formation. Tumors derived from wnt-1 overexpression in the mammary gland show a high degree of vascularization, identified as internal networks lined by a thick cell layer than stains intensely for syndecan-1 and for PECAM (CD31), indicative of activated endothelium (FIG. 11C). In fact, syndecan-1 expression in these cells swamps out the positive staining for syndecan-1 seen in the mammary epithelial cells, which are known to be positive for syndecan-1. These same cell layers as positive for αv, β3 and β5 integrin subunits. A similar finding is seen in tumors arising from overexpression of β-catenin (FIG. 11C). Although the vascularization is not as extensive as in the […] tumors, there are clear thickened layers of cells that are PECAM, syndecan-1 and αvβ3/αvβ5 integrin positive in these mammary tumors. […]"}, "[1]": {"tested_on": "MDA-MB-231 human mammary carcinoma cells", "experiment": "Cell attachment and spreading on fibronectin (control ligand), MDA-MB-231 cells", "type": "cell-based", "conditions": "MDA-MB-231, α5β1 integrin-dependent control", "protocol": "FIGS. 5A-5F—Inhibition of MDA-MB-231 human mammary carcinoma cell attachment and spreading on VN by synstatin82-130. MDA-MB-231 human mammary carcinoma cells, which rely on the αvβ3 integrin for attachment and spreading on VN, were plated on 10 μg/ml VN for 2 hr in the absence of peptide (FIG. 5A) or in the presence of 0.1 (FIG. 5B), 0.3 (FIG. 5C) or 1 μM (FIG. 5D) synstatin82-130. The cells were fixed and stained as in FIG. 2.\nFIG. 17—Human SSTN peptides inhibit αvβ3-mediated cell attachment and spreading on vitronectin. MDA-MB-231 human mammary carcinoma cells were allowed to attach and spread on either vitronectin (VN) or fibronectin (FN) during a 2 hr assay in the presence of 0, 0.1, 0.3, 0.5, 1.0 or 30 μM SSTN peptide. […] The two peptides tested are derived either from amino acids 88-121 (hSSTN 88-121) or 89-120 (hSSTN 89-120) of the human Sdc1 sequence. Adhesion to VN, but not FN, is mediated by the αvβ3 integrin on these cells and is disrupted by the human SSTN peptides. […]"}, "human CAG myeloma cells": {"tested_on": "human CAG myeloma cells", "experiment": "CAG myeloma tumor formation in SCID mice", "type": "in vivo, mouse"}}, "note": "Values joined by “and” are separate entries in the source; they are usually repeats but may differ in a detail not shown here. Identical values can stand only once. Part of at least one peptide drawing is inferred or uncertain, most often the ends. Where no end group is shown, it is not given here.", "data": [{"sequence": "SNTETAFTSVLPAGEKPEEGEPVLHVEAEPGFTARDKEKEVTTRPRETV [synstatin82-130]", "values": [{"measurement": "IC50, microvessel outgrowth in response to VEGF", "setting": "segments of mouse aorta; 50 ng/ml VEGF, relative to IC50 in FGF", "result": "slightly greater"}, {"measurement": "outgrowth of support cells (non-endothelial)", "setting": "segments of mouse aorta; aortic ring explants", "result": "unaffected"}, {"measurement": "fold more potent than mS1ED as anti-angiogenic agent", "setting": "segments of mouse aorta; aortic ring outgrowth", "result": 10, "unit": "fold"}, {"measurement": "attachment and spreading on fibronectin", "setting": "[1]", "result": "no effect"}, {"measurement": "fold reduction in tumor size by luciferase imaging", "setting": "human CAG myeloma cells; 100 μM SSTN in Alzet pump, 0.25 μl/hr, 28 days, vs PBS", "result": "10-11 fold and 11 fold"}, {"measurement": "vessel density and vessel length in tumor (mouse CD34 staining)", "setting": "human CAG myeloma cells; after 28 days", "result": "significant reduction"}, {"measurement": "tumor weight", "setting": "human CAG myeloma cells; dissected after 28 days, 100 μM SSTN in pump", "result": "22 ± 6", "unit": "g"}]}]}
